These are yes or no findings as the source states them, for the method shown. A result given as binding can be weak or reduced; the word gives no strength.
B1: 22995 (antibody, human IgG1, kappa, L234A L235A, V domains shown)
VH: EVQLVESGGSLVQPGGSLRLSCAASGFTFSSSAMSWVRQAPGKGLEWVSTISGSDSSTYDADSVKGRSTISRDNSKNTLYLQMNSLRADDTAVYYCAKKGAYCSGTICYDPFDYWGQGTLVTVSS
VL: DIVLTQSPVLAVSLGQRATISCRASQSVSISSINLMHWYQQKPGQQPKLLIYRASNLASGIPARFSGSGSGTDFTLTIDPVQADDIAAYYCQQSRESPLTFGGGTKVEIKR
B2: 22883 (antibody, human IgG1, kappa, L234A L235A, V domains shown)
VH: EVQLVESGGGLVQPGGSLRLSCAASGFTFSSYAMSWVRQAPGKGLEWVSAISGGGDYTYYADSVKGRFTISRDNSKNTLYLQMNSLRAEDTAVYYCAKEEWELRGPFRYWGQGTLVTVSS
VL: DIQMTQSPSTLSASVGDRVTITCRASQSISSWLAWYQQKPGKAPKFLIYKASSLESGVPSRFSGSGSGTEFTLTISSLQPDDFATYYCQQYNGFSWTFGQGTKVEIKR

Molecular target: His-tagged cynomolgus AXL extracellular domain (recombinant) (cynomolgus)
Assay: SPR

| Binder | binding |
| --- | --- |
| B1 | binds |
| B2 | binds |

Reference: patent US20210269532A1
